Test results from the supplement of paper PMC10849652.
The list shows a part of the results.

Sequences of proteins named here, by UniProt entry; tags and fusion partners are left off. A change or cut given only in a name is not applied to a line headed by its entry.
UniProt Q13308: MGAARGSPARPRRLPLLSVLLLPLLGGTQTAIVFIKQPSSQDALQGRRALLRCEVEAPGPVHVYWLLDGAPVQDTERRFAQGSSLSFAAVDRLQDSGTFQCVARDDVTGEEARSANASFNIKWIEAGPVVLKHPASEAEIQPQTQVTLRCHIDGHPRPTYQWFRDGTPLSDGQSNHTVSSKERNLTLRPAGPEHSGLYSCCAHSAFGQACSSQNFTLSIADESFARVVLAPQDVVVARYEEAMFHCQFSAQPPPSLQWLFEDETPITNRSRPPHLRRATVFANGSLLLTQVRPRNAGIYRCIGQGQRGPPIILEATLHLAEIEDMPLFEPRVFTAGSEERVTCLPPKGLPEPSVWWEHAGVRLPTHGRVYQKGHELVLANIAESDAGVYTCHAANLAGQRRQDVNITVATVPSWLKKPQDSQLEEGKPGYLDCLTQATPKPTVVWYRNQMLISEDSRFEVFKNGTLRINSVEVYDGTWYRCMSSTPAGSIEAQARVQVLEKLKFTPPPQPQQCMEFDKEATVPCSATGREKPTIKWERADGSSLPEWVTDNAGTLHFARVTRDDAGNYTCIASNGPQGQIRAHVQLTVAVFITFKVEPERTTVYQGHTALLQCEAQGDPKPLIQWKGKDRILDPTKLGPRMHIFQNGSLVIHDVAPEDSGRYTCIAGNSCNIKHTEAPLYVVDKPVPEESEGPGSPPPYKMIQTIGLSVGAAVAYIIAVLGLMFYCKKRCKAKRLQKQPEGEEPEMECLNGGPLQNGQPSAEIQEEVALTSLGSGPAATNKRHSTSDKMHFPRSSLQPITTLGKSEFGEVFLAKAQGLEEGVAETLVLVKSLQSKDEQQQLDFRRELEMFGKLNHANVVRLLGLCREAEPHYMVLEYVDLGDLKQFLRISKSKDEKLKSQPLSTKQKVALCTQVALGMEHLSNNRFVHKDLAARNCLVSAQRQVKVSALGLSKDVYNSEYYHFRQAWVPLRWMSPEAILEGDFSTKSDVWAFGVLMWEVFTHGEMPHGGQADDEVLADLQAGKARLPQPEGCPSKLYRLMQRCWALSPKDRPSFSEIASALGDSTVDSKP
UniProt Q9H7Z7: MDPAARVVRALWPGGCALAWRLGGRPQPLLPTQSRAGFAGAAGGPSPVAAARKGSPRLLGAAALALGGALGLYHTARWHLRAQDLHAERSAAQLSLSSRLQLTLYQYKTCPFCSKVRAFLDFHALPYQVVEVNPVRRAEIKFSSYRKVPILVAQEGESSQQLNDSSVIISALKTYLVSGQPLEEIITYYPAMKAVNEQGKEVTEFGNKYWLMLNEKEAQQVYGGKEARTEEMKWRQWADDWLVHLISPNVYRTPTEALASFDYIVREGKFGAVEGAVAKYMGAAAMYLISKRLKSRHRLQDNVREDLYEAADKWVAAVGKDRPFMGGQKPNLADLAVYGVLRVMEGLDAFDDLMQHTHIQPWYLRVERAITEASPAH
UniProt Q8TAA3: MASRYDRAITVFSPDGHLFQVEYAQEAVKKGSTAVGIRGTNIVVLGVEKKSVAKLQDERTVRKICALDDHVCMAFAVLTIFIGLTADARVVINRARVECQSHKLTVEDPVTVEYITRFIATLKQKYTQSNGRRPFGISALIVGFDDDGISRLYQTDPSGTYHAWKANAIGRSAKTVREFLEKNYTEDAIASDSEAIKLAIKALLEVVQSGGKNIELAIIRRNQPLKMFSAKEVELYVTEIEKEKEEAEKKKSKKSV
UniProt Q5JS54: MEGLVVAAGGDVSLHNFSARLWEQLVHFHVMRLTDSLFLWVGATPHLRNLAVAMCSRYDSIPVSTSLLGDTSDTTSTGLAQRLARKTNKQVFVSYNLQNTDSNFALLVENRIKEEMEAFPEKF
UniProt Q9UHX1: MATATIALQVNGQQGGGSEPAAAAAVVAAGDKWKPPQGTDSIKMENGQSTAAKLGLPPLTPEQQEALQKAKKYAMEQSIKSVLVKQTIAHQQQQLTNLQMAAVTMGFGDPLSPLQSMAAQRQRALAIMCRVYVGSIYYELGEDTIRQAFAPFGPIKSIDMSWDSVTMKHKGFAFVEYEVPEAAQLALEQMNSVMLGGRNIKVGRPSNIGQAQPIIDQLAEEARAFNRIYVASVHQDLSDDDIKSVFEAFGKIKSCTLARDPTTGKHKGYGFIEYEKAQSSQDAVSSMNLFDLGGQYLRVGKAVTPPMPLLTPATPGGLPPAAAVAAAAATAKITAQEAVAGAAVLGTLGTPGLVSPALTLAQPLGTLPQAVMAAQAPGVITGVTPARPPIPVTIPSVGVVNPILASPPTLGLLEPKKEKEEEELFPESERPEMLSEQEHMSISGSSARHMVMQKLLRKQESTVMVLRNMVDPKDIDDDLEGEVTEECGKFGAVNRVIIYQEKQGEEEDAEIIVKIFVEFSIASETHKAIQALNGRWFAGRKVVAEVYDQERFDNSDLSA
UniProt Q15257: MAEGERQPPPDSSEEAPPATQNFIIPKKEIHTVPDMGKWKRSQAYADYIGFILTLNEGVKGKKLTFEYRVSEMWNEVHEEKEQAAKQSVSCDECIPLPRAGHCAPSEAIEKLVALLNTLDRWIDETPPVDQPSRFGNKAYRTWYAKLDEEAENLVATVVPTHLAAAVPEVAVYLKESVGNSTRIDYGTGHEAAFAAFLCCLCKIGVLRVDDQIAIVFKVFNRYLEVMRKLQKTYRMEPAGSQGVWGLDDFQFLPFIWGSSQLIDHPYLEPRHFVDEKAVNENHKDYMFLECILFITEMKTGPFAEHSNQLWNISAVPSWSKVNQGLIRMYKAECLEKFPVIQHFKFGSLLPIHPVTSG
UniProt Q15185: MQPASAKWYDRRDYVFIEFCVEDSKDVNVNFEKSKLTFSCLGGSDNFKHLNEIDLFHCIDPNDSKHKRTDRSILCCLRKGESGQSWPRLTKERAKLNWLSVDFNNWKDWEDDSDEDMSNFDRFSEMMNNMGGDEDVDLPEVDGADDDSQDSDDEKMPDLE
UniProt Q8WU10: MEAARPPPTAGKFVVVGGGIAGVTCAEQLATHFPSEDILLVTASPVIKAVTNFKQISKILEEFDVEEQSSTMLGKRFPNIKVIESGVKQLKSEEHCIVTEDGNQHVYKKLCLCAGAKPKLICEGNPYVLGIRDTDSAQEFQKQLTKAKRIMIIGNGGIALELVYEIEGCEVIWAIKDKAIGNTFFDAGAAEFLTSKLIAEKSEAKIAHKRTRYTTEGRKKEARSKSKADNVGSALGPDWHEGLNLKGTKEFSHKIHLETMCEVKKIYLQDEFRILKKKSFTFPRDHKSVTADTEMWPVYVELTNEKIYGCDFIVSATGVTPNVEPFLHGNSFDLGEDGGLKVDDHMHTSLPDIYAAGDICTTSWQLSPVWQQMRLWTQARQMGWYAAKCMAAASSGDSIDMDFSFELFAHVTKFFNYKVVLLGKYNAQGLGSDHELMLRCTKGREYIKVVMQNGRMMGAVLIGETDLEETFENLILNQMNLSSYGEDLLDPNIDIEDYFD
UniProt P51665: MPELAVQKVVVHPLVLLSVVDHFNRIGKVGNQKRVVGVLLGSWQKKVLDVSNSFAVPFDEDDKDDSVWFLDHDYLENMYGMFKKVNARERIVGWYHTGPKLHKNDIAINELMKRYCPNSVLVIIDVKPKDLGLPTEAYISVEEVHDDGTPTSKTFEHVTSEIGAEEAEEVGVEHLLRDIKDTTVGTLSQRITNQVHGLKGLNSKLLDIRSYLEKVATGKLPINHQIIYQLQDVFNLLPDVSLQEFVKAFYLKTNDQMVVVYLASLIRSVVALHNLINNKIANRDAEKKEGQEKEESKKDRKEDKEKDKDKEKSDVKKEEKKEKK
UniProt Q14671: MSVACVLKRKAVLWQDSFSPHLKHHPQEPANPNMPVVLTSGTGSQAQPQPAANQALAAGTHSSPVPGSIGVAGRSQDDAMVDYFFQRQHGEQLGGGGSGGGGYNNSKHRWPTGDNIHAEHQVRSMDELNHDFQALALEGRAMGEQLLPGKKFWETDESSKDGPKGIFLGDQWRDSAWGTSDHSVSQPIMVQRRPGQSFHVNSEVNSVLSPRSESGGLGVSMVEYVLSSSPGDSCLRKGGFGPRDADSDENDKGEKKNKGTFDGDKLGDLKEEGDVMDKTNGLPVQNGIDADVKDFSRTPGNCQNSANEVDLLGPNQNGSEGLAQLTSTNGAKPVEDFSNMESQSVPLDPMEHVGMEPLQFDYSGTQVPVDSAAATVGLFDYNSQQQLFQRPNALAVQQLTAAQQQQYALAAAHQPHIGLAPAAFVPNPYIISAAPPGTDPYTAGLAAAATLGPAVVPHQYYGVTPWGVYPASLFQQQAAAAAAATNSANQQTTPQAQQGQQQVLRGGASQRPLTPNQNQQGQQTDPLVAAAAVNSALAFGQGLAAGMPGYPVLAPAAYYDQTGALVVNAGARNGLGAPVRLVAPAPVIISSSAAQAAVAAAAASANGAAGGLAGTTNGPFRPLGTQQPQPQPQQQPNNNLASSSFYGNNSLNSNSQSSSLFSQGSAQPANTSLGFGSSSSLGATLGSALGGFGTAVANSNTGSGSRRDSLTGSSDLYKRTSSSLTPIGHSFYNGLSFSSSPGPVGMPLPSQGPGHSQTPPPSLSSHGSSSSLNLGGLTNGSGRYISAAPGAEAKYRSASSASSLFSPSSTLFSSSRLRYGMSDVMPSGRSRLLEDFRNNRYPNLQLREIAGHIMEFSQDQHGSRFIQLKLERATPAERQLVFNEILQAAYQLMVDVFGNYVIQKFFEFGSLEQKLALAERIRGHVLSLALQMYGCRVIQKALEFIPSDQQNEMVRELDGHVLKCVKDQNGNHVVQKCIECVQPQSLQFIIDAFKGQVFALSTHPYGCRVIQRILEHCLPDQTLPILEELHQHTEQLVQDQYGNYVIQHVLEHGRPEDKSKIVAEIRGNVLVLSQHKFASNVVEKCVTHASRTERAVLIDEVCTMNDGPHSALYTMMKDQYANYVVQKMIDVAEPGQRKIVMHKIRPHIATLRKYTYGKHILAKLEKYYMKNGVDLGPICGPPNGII
UniProt P55036: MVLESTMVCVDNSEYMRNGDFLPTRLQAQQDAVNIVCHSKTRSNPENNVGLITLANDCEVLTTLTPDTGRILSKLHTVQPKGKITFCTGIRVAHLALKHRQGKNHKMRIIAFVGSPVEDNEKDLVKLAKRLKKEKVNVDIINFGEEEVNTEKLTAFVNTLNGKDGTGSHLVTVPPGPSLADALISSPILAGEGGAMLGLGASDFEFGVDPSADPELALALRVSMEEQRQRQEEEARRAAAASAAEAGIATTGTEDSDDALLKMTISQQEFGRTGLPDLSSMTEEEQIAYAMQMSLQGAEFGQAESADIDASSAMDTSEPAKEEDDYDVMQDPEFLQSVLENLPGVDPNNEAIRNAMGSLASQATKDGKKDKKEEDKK
UniProt Q8NDX1: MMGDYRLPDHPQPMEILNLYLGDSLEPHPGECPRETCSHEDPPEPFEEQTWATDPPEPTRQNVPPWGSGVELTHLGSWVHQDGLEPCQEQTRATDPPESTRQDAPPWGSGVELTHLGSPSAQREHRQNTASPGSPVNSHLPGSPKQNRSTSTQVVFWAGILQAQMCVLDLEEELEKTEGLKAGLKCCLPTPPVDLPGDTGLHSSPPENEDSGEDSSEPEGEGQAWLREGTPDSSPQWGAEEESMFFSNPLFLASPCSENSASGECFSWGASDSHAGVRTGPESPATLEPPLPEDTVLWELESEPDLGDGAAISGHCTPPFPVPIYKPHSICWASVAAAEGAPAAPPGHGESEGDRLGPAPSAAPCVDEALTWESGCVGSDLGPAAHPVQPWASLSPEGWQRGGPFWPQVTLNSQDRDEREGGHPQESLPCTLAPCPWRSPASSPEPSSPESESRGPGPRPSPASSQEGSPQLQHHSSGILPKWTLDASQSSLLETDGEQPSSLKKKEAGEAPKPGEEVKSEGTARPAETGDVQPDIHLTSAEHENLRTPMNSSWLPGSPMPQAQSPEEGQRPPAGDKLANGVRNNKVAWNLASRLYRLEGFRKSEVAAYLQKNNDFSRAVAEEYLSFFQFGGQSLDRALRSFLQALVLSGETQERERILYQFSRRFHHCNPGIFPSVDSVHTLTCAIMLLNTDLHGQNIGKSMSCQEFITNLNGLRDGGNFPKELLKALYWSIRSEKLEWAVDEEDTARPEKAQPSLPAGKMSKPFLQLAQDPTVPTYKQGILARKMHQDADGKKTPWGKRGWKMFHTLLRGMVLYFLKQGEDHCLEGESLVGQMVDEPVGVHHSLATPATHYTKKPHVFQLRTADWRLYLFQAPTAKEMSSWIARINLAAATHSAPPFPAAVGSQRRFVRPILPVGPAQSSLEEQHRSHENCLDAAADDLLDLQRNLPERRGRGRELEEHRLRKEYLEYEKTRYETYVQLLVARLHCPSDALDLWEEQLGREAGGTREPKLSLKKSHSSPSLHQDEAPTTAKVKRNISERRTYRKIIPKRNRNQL
UniProt P53801: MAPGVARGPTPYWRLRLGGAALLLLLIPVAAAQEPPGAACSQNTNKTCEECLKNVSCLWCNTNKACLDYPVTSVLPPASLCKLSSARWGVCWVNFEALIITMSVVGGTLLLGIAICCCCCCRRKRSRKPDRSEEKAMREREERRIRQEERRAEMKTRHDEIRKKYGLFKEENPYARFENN

Columns and labels:
Assay in all cases: log2 fold change, soluble protein after heating vs DMSO (PISA); higher = thermal stabilisation; K562 cells, 10 uM, 30 min; active = over 0.2 and 3.5 SD of the protein, either way, in both replicates (recomputed)
[1] = compound: CS(=O)(=O)c1ccc(-c2cnc(N)c(C(=O)Nc3ccccc3)n2)cc1
In short: (§1)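 Aliquots of K562 cells (2×10^6 cells/mL) treated with 10 μM compound for 30 min were heated for 3 min over 48°C-58°C. After pooling and extraction in PBS with 0.5% NP-40 at 4°C, soluble protein from a 21,000xg, 90 min spin was quantified by TMTpro 16plex LC-MS/MS with channel sums equalised. Thermal stability is expressed against control samples, from duplicates, as a log2 fold change.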

crizotinib = compound: C[C@@H](Oc1cc(-c2cnn(C3CCNCC3)c2)cnc1N)c1c(Cl)ccc(F)c1Cl [crizotinib]
In short: as §1

[2] = compound: C[C@@H]1COCCN1C2=NC(=NC(=C2)C3(CC3)S(=O)(=O)C)C4=C5C=CNC5=CC=C4
In short: as §1

[3] = compound: C[C@H](C1=CC=C(C=C1)C(=O)NC2=C3C=CNC3=NC=C2)N
In short: as §1

duvelisib = compound: C[C@H](Nc1ncnc2nc[nH]c12)c1cc2cccc(Cl)c2c(=O)n1-c1ccccc1 [duvelisib]
In short: as §1

gandotinib = compound: Cc1cc(Nc2cc(CN3CCOCC3)c3nc(C)c(Cc4ccc(Cl)cc4F)n3n2)n[nH]1 [gandotinib]
In short: as §1

tozasertib = compound: Cc1cc(Nc2cc(N3CCN(C)CC3)nc(Sc3ccc(NC(=O)C4CC4)cc3)n2)n[nH]1 [tozasertib]
In short: as §1

[4] = compound: Cc1cc(SCc2sc(-c3ccc(C(F)(F)F)cc3)nc2C)ccc1OCC(=O)O
In short: as §1

doramapimod = compound: Cc1ccc(-n2nc(C(C)(C)C)cc2NC(=O)Nc2ccc(OCCN3CCOCC3)c3ccccc23)cc1 [doramapimod]
In short: as §1

ispinesib = compound: Cc1ccc(C(=O)N(CCCN)[C@@H](c2nc3cc(Cl)ccc3c(=O)n2Cc2ccccc2)C(C)C)cc1 [ispinesib]
In short: as §1

Target	log2 fold change [1]	log2 fold change (crizotinib)	log2 fold change [2]	log2 fold change [3]	log2 fold change (duvelisib)	log2 fold change (gandotinib)	log2 fold change (tozasertib)	log2 fold change [4]	log2 fold change (doramapimod)	log2 fold change (ispinesib)
PTK7 isoform 6 (UniProt Q13308)	inactive: 0.029	inactive: 0.099	inactive: 0.135	inactive: -0.002	inactive: -0.021	inactive: -0.063	inactive: 0.014	inactive: -0.067	inactive: -0.011	inactive: -0.025
PURB (UniProt Q96QR8)	inactive: 0.034	inactive: 0.066	inactive: -0.559	inactive: 0.257	inactive: -0.167	inactive: 0.155	inactive: 0.033	inactive: -0.05	inactive: 0.083	inactive: -0.191
PUS3 (UniProt Q9BZE2)	inactive: -0.05	inactive: -0.153	inactive: 0.063	inactive: -0.047	inactive: 0.07	inactive: -0.133	inactive: -0.04	inactive: 0.057	inactive: 0.042	inactive: -0.066
PTGES2 (UniProt Q9H7Z7)	inactive: 0.012	inactive: 0.021	inactive: 0.004	inactive: -0.038	inactive: 0.007	inactive: -0.008	inactive: 0.029	inactive: -0.024	inactive: 0.008	inactive: -0.048
PTBP1 (UniProt P26599)	inactive: -0.013	inactive: 0.068	inactive: -0.031	inactive: -0.056	inactive: 0.038	inactive: 0.018	inactive: 0.042	inactive: 0.086	inactive: -0.135	inactive: 0.011
PSMA8 (UniProt Q8TAA3)	inactive: 0.005	inactive: 0.049	inactive: -0.05	inactive: 0.044	inactive: 0.007	inactive: 0.026	inactive: 0.017	inactive: 0.026	inactive: 0	inactive: 0.059
PTMS (UniProt P20962)	inactive: -0.025	inactive: -0.014	inactive: 0.034	inactive: -0.039	inactive: 0.022	inactive: 0.055	inactive: -0.019	inactive: -0.041	inactive: 0.004	inactive: 0.052
PSMB2 (UniProt P49721)	inactive: 0.013	inactive: 0.138	inactive: 0.02	inactive: -0.007	inactive: -0.021	inactive: 0.024	inactive: 0.031	inactive: -0.006	inactive: 0.015	inactive: 0.121
PUS7 isoform 2 (UniProt Q96PZ0)	inactive: -0.031	inactive: 0.016	inactive: -0.032	inactive: 0.028	inactive: 0.017	inactive: -0.01	inactive: -0.009	inactive: 0.011	inactive: 0.03	inactive: -0.012
PSMD11 (UniProt O00231)	inactive: 0.036	inactive: -0.024	inactive: -0.035	inactive: 0.074	–	inactive: 0.046	–	inactive: 0.07	inactive: 0.013	inactive: 0.045
PSMG4 isoform 2 (UniProt Q5JS54)	inactive: -0.107	inactive: 0.142	inactive: -0.018	inactive: -0.107	inactive: 0.045	inactive: 0.072	inactive: -0.014	inactive: -0.012	inactive: 0.016	inactive: 0.129
PUF60 (UniProt Q9UHX1)	inactive: -0.012	inactive: 0.031	inactive: 0.025	inactive: -0.199	–	inactive: -0.09	–	inactive: 0.056	inactive: -0.041	inactive: 0.039
PSMD3 (UniProt O43242)	inactive: 0.058	inactive: 0.003	inactive: -0.003	inactive: 0.094	–	inactive: 0.028	–	inactive: 0.047	inactive: 0.047	inactive: 0.013
PTPA (UniProt Q15257)	inactive: -0.001	inactive: 0.028	inactive: 0.074	inactive: -0.117	–	inactive: -0.037	–	inactive: 0.013	inactive: -0.001	inactive: 0.091
PTGES3 (UniProt Q15185)	inactive: 0.047	inactive: 0.066	inactive: 0.068	inactive: -0.101	–	inactive: -0.049	–	inactive: 0.086	inactive: -0.118	inactive: 0.015
PTRHD1 (UniProt Q6GMV3)	inactive: 0.003	inactive: 0.006	inactive: 0.184	inactive: -0.097	–	inactive: 0.08	–	inactive: 0.022	inactive: -0.036	inactive: 0.225
PYROXD1 (UniProt Q8WU10)	inactive: -0.134	inactive: -0.086	inactive: 0.123	inactive: -0.057	inactive: 0.044	–	inactive: 0.029	inactive: 0.021	inactive: 0.024	inactive: 0.044
PSMA3 (UniProt P25788)	inactive: 0.011	inactive: 0.052	inactive: -0.012	inactive: -0.117	–	inactive: 0.054	–	inactive: 0.007	inactive: 0.018	inactive: -0.002
PSMA2 (UniProt P25787)	inactive: -0.03	inactive: 0.096	inactive: -0.009	inactive: 0.01	inactive: -0.051	inactive: 0.048	inactive: 0.023	inactive: -0.006	inactive: -0.003	inactive: 0.069
PTPRN2 isoform 3 (UniProt Q92932)	inactive: 0.153	inactive: 0.331	inactive: 0.062	inactive: 0.823	inactive: 0.111	–	–	inactive: -0.068	inactive: -0.065	–
PSMD7 (UniProt P51665)	inactive: 0.077	inactive: -0.001	inactive: -0.053	inactive: 0.072	–	inactive: 0.078	–	inactive: -0.003	inactive: 0.069	inactive: 0.018
PUM1 isoform 3 (UniProt Q14671)	inactive: 0.007	inactive: -0.02	inactive: -0.007	inactive: 0.071	–	inactive: -0.055	–	inactive: 0.007	inactive: -0.03	inactive: 0.01
PSMD4 (UniProt P55036)	inactive: 0.024	inactive: 0.011	inactive: -0.057	inactive: 0.047	inactive: -0.044	inactive: -0.021	inactive: 0.029	inactive: 0.014	inactive: 0.005	inactive: 0.026
PSD4 (UniProt Q8NDX1)	inactive: 0.096	inactive: -0.114	inactive: -0.252	inactive: 0.033	inactive: 0.012	–	inactive: 0.056	inactive: 0.112	inactive: 0.083	inactive: -0.014
PYGB (UniProt P11216)	active: -0.305	inactive: -0.057	inactive: 0.015	inactive: 0.107	–	inactive: -0.045	–	inactive: -0.002	inactive: -0.005	inactive: 0.013
PSMD13 (UniProt Q9UNM6)	inactive: 0.048	inactive: 0.008	inactive: -0.012	inactive: 0.092	–	inactive: -0.016	–	inactive: 0.052	inactive: 0.026	inactive: -0.008
PSMB6 (UniProt P28072)	inactive: 0.01	inactive: 0.096	inactive: 0.003	inactive: 0.059	–	active: 0.444	–	inactive: -0.029	inactive: 0.049	inactive: -0.037
PTTG1IP (UniProt P53801)	inactive: 0.043	inactive: 0.1	inactive: 0.102	inactive: -0.044	–	inactive: 0.094	–	inactive: -0.075	inactive: -0.106	–

Shown bar-delimited: part of the list above
Target | log2 fold change [1] | log2 fold change (crizotinib) | log2 fold change [2] | log2 fold change [3] | log2 fold change (duvelisib) | log2 fold change (gandotinib) | log2 fold change (tozasertib) | log2 fold change [4] | log2 fold change (doramapimod) | log2 fold change (ispinesib)
PSMG4 isoform 2 (UniProt Q5JS54) | inactive: -0.107 | inactive: 0.142 | inactive: -0.018 | inactive: -0.107 | inactive: 0.045 | inactive: 0.072 | inactive: -0.014 | inactive: -0.012 | inactive: 0.016 | inactive: 0.129
PSMB6 (UniProt P28072) | inactive: 0.01 | inactive: 0.096 | inactive: 0.003 | inactive: 0.059 | – | active: 0.444 | – | inactive: -0.029 | inactive: 0.049 | inactive: -0.037
